Measured values taken from PMC12314576, “The Actin‐Binding Prolyl‐Isomerase Par17 Sustains Its Substrate Selectivity by Interdomain Allostery” (Proteins, 2025).
Results are given in words; binding and its absence hold for the method and conditions named. Some results given as binding are weak or reduced against the parent protein; the word gives no strength.

Assays:
Assay in all cases: peptide or protein array; 12-mers of β-actin (aa 1–375) shifted by 2 residues, SPOT-synthesised on cellulose membranes; blocked with 5% BSA in PBS; incubated overnight with Atto594-labeled Par14 or Par17; fluorescence imaging; runs of three or more spots classified as possible binding sites; both purified
[1] = target: β-actin peptides Tyr53–Pro70 (spots G2–J2) (UniProt P60709)
[2] = target: β-actin peptides Leu299–Glu316 (spots J8–M8) (UniProt P60709)
[3] = target: β-actin peptides Glu83–Glu100 (spots B3–E3) (UniProt P60709)
[4] = target: β-actin peptides Ile345–Tyr362 (spots M9–P9) (UniProt P60709)
[5] = target: β-actin peptides Glu167–Gly182 (spots D5–F5) (UniProt P60709)

Measured: binding

Atto594-labeled Par17 (from UniProt Q9Y237-2 1-156) (enzyme)
binds: all assays above
